# Results as given in PubChem BioAssay AID743255 (National Center for Advancing Translational Sciences (NCATS), 2014).
# Chains of the proteins cited; added tags and fusions are not shown. Lines headed by an entry give the natural chain unless they say otherwise; changes in a name come on top.
# UniProt O94782: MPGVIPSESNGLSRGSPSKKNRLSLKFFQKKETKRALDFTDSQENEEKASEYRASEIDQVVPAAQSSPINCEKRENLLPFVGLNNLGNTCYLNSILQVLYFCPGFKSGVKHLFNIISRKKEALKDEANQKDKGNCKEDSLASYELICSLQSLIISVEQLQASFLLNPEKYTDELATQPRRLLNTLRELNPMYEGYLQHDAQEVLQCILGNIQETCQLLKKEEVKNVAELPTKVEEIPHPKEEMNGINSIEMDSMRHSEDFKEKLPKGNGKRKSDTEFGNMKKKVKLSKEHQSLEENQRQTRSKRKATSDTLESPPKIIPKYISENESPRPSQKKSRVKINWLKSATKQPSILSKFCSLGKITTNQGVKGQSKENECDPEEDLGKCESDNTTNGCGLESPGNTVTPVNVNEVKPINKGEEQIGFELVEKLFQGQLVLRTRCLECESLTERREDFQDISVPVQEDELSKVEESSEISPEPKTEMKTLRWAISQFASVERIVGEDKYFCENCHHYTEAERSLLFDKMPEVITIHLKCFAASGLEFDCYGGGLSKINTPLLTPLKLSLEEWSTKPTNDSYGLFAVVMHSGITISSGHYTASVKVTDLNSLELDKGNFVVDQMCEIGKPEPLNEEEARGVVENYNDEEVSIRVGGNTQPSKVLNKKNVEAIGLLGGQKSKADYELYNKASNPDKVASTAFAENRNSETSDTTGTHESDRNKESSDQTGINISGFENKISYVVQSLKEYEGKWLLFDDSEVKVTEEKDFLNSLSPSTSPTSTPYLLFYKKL
# Hit rate of the full screen: of about 390,000 compounds, about 910 (0.23%) were called active. The inconclusive results got no clear call from the source; some entries with a clear call stand among them for comparison. Calls come from the whole dose curve; as a rule, active = well fitted inhibition curve with a large enough effect; inconclusive = small, poorly fitted or top-dose-only effect; inactive = no such curve, though single readings can be large or run the other way. A potency beside an inconclusive call is a rough fit, not a confirmed value.
# Molecular target: Ubiquitin carboxyl-terminal hydrolase 1 (Homo sapiens) (UniProt O94782)
# Assay: Inhibitors of USP1/UAF1: Primary Screen; note: nearly all actives have a fitted effect of over 60% in size
# Conditions: recombinant USP1/UAF1, Ub-Rhodamine cleavage fluorescence; activity change, negative = inhibition: at 57.1 µM (top of the series)
# Procedure, shortened: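 USP1/UAF1 complex (1 nM) preincubated 15 min at room temperature with compound, then Ub-Rho substrate (150 nM final) added. Kinetic fluorescence at 480/540 nm over 6 reads at 60 s intervals; 50 mM HEPES pH 7.8, 0.5 mM EDTA, 0.1 mg/ml BSA, 1 mM TCEP, 0.01% Tween-20.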
# % is set by controls: 0 for no effect and ±100 for the full control effect; potency is the fitted concentration of half-maximal effect.
Structure (SMILES),"activity change, negative = inhibition",Potency
O=C1NC(=O)C(c2cn(-c3ccccc3)nc2-c2ccc(F)cc2)N1 (stereo not given),inactive: -14.8%,
COc1cc(NC(C)=O)c2ncccc2c1[N+](=O)[O-],inactive: -14.6%,
CCOC(=O)c1ccccc1NC(=O)CSc1ccc(-c2sc(C)nc2C)nn1,inactive: -26.8%,
Cc1ccc(C(=O)NCCc2csc(-c3cccc(F)c3)n2)cc1C,,"inconclusive: 100 µM [inhibitor, partial curve, poor fit]"
Cn1c(SCc2ccc(F)cc2)nc2ccc(C(=O)NCc3cccc(Cl)c3)cc21,inactive: -6.96%,
COCCNC(=O)c1ccc(Cn2c(SCC(N)=O)nc3ccccc3c2=O)cc1,,"inconclusive: 4.47 µM [inhibitor, single point]"
COc1ccc(N2CCN(C(=O)Cc3csc(NC(=O)Nc4ccccc4OC)n3)CC2)cc1,,"inconclusive: 5.62 µM [inhibitor, full curve]"
Cc1cc(=O)n2nc(N3CCC(C(=O)Nc4ccc(Br)c(C)c4)CC3)sc2n1,,"inconclusive: 0.0282 µM [inhibitor, full curve, poor fit]"
O=C(CSc1ccc(-c2ccccc2)nn1)Nc1ccc2c(c1)OCCO2,inactive: -2.19%,
O=C(Nc1cccc(C(F)(F)F)c1)c1cccnc1N1CCN(CCO)CC1,inactive: -24.9%,
O=C1OCC(CO)(CO)N=C1NNc1ccccc1Cl,inactive: -21.3%,
Cc1ccc(NN2C(=O)C=C(c3ccc(Cl)cc3)C2=O)cc1,inactive: -8.74%,
CCN(C(=O)COC(=O)c1ccccc1O)c1nc2ccccc2s1,,"inconclusive: 39.8 µM [inhibitor, partial curve, poor fit]"
C[C@]12c3[nH]c4ccc(Cl)cc4c3CCN1C(=O)[C@@H](CC(=O)NCC13CC4CC(CC(C4)C1)C3)C[C@@H]2C(=O)N1CCCCC1,,"inconclusive: 50.1 µM [inhibitor, partial curve, poor fit]"
COc1ccc(-n2ncc(C(=O)NCc3cccs3)c2C2CCN(C(=O)OC(C)(C)C)CC2)cc1,,"inconclusive: 28.2 µM [inhibitor, partial curve]"
CC(=O)Nc1nc(CC(C)C)cc(-c2ccccc2)c1C#N,inactive: -16.6%,
NS(=O)(=O)c1ccc(CCNC(=O)COC(=O)c2ccc([N+](=O)[O-])o2)cc1,,"inconclusive: 35.5 µM [inhibitor, partial curve, poor fit]"
O=C(CSc1nnc2sc3ccccc3n12)NCc1ccc2c(c1)OCO2,,"inconclusive: 39.8 µM [inhibitor, single point]"
c1ccc(Nc2ccc3c4c(cccc24)CC3)cc1,,"inconclusive: 15.8 µM [inhibitor, partial curve]"
COc1ccccc1/C=C/c1nc(C#N)c(NCc2ccccc2)o1,inactive: 11.5%,
CCCCC(=O)NC(=S)Nc1c(C)cc(Br)cc1C,inactive: -11.9%,
Cc1ncc(CO)n1Cc1ccc(Cl)cc1,inactive: -1.91%,
CCOc1ccccc1C(=O)Nc1cccc(-c2nc3ccccc3s2)c1,,"inconclusive: 50.1 µM [inhibitor, partial curve, poor fit]"

Structure (SMILES),"activity change, negative = inhibition",Potency
Cc1cc(C)cc(NC(=O)NCc2noc3ccccc23)c1,,"inconclusive: 31.6 µM [inhibitor, single point]"
COc1ccc(S(=O)(=O)Nc2ccc3c(c2)C(=O)N([C@@H](C)CO)C[C@@H](C)[C@H](CN(C)S(=O)(=O)c2ccc(F)cc2)OCCCC[C@H](C)O3)cc1,,"inconclusive: 0.282 µM [inhibitor, full curve, poor fit]"
CCC(=O)N1CCCc2cc(S(=O)(=O)N3CCC(C(=O)NC4CCC(C)CC4)CC3)ccc21 (stereo not given),,"inconclusive: 4.47 µM [inhibitor, single point]"
COc1cccc(N2CC(NC(=O)/C=C\c3ccccc3)CC2=O)c1 (stereo not given),,"inconclusive: 56.2 µM [inhibitor, partial curve, poor fit]"
CN1/C(=C/C(=O)C2CC2)C(C)(C)c2ccccc21,,"inconclusive: 44.7 µM [inhibitor, partial curve, poor fit]"
COc1ccc(C(CCNCc2ccc(N(C)C)cc2)c2ccccc2OC)cc1 (stereo not given),,"inconclusive: 6.31 µM [inhibitor, single point]"
CCC(Sc1nnc(-c2ccc(F)cc2)c(-c2ccc(F)cc2)n1)C(=O)NC1CCCC1 (stereo not given),inactive: -14.3%,
Cc1ccc(SCC(=O)c2c(C)nc3cc(C)ccn23)cc1,inactive: -16.3%,
O=S(=O)(c1ccccc1)n1nc(-c2ccco2)nc1NCc1ccccc1,,"inconclusive: 7.94 µM [inhibitor, partial curve]"
COc1ccc2nc3ccccc3nc2c1NC(=O)c1ccccc1Cl,,"inconclusive: 35.5 µM [inhibitor, single point]"
COc1cc2c(cc1OC)CN(S(=O)(=O)/C=C/c1ccccc1)CC2,,"inconclusive: 50.1 µM [inhibitor, partial curve, poor fit]"
COc1cccc(NC(=O)CNS(=O)(=O)c2ccc(Cl)cc2)c1,inactive: 2.58%,
COCCCNC(=S)N1CCN(c2nc(-c3cccc(OC)c3)cs2)CC1,,"inconclusive: 44.7 µM [inhibitor, partial curve, poor fit]"
Cc1cccn2c(CNCC(C)Oc3cccnc3)c(C(=O)N3CCOCC3)nc12 (stereo not given),,"inconclusive: 56.2 µM [inhibitor, partial curve, poor fit]"
CCOC(=O)C1=NS(=O)(=O)NC(C)=C1,,"inconclusive: 31.6 µM [inhibitor, single point]"
O=C1C(=C(I)I)c2ccccc2-c2ccccc21,,active: 28.2 µM
O=C(/C=C/c1cccc2ccccc12)c1ccncc1,,"inconclusive: 44.7 µM [inhibitor, partial curve, poor fit]"
CN(C1=C(NC(=O)c2ccccc2)C(=O)c2ccccc2C1=O)C1CCS(=O)(=O)C1 (stereo not given),,active: 10 µM
CC1=NOC(=O)/C1=C\c1ccccc1,inconclusive: -16.8% [inhibitor],
CC(=O)Nc1cccc(-c2nnc(SCC(=O)c3cc([N+](=O)[O-])ccc3Cl)o2)c1,,"inconclusive: 39.8 µM [inhibitor, single point]"
COc1cc(C=C2CN(C)C(=O)C2=O)ccc1O,inactive: -24.7%,
CCc1ccc(/C=C2\SC(=S)N(CCCC(=O)Nc3ccccn3)C2=O)cc1,,"inconclusive: 35.5 µM [inhibitor, partial curve]"

# Two entries from above, set out differently.
Structure (SMILES)	activity change, negative = inhibition	Potency
Cc1ccc(SCC(=O)c2c(C)nc3cc(C)ccn23)cc1	inactive: -16.3%	
O=C1C(=C(I)I)c2ccccc2-c2ccccc21		active: 28.2 µM
